# PubChem BioAssay AID1347131 (National Center for Advancing Translational Sciences (NCATS), 2019)
# Out of some 410,000 compounds screened, about 2,000 (0.49%) were called active. Calls follow the shape of the full dose curve; tested in HEK293 reporter line. Inconclusive results, whose numbers are uncertain, are shown. A potency beside an inconclusive call is a rough fit, not a confirmed value.
# Test: qHTS Assay for Foot and Mouth Disease Virus Antivirals: Primary Screen against the MLPCN compound library; also: nearly all actives have a fitted effect of over 55% in size
# Conditions: FMDV antiviral cell-based qHTS; series mostly up to 57.9 µM
# Potency is read from the fitted curve at half-maximal effect.
row,Structure (SMILES),Potency
1,COc1cc(C(C[N+](=O)[O-])c2c(C)cc3ccccn23)ccc1O (stereo unspecified),"inconclusive: 22.4 µM [inhibitor, partial curve, poor fit]"
2,CCCc1nc2oc3c(Cl)ncnc3c2c2c1CCCC2,"inconclusive: 14.1 µM [inhibitor, partial curve, poor fit]"
3,CCOC(=O)CC1CCCCN1C(=O)c1cc(COc2cccc3cnccc23)on1 (stereo unspecified),"inconclusive: 2.82 µM [inhibitor, partial curve, poor fit]"
4,COc1ccc(CN(C)CC(=O)Nc2ccc(SC(F)F)cc2)cc1OC,"inconclusive: 17.8 µM [inhibitor, partial curve, poor fit]"
5,COc1cccc(C(=O)Nc2ccc(NC(=O)C(C)(C)C)cn2)c1,"inconclusive: 14.1 µM [inhibitor, single point]"
6,O=C(O)c1c2c(nc3ccccc13)/C(=C/c1ccc(O)cc1)CC2,"inconclusive: 28.2 µM [inhibitor, single point]"
7,C[C@H](NC(=O)c1[nH]cnc1C(=O)Nc1nccs1)c1ccccc1,"inconclusive: 3.98 µM [inhibitor, full curve]"
8,O=C(NC1CCCC1)C(c1ccc(F)cc1)N(Cc1ccccc1Cl)C(=O)CCl (stereo unspecified),"inconclusive: 28.2 µM [inhibitor, partial curve, poor fit]"
9,Cc1cc(C(=O)OCC(=O)Nc2cc(S(=O)(=O)N(C)C)ccc2C)c2ccccc2n1,"inconclusive: 15.8 µM [inhibitor, partial curve, poor fit]"
10,Nc1ccc(Nc2nc(-c3cccs3)cs2)cc1,"inconclusive: 25.1 µM [inhibitor, single point]"
11,CCC(C)N1C(=O)/C(=C\c2cnc(N(C)C)nc2)C(=O)NC1=S (stereo unspecified),"inconclusive: 22.4 µM [inhibitor, partial curve, poor fit]"
12,COc1ccc(C(=O)NCCn2cc(SCC(=O)Nc3nnc(C)s3)c3ccccc32)cc1,"inconclusive: 22.4 µM [inhibitor, partial curve, poor fit]"
13,CC12Cc3cnoc3C=C1CCC1C2CCC2(C)C1CCC2(C)O (stereo unspecified),"inconclusive: 35.5 µM [inhibitor, partial curve, poor fit]"
14,O=C(CCl)Nc1sccc1C(=O)c1ccccc1,"inconclusive: 20 µM [inhibitor, partial curve, poor fit]"
15,COc1cc2ccccc2cc1C(=O)Nc1ccc(Cc2ccncc2)cc1,"inconclusive: 17.8 µM [inhibitor, single point]"
16,O=C(O)c1ccc(Nc2nc3c(s2)CCCC3)cc1,"inconclusive: 10 µM [inhibitor, partial curve, poor fit]"

# 2 compounds drawn at random from the list so far:
row,Structure (SMILES),Potency
14,O=C(CCl)Nc1sccc1C(=O)c1ccccc1,"inconclusive: 20 µM [inhibitor, partial curve, poor fit]"
10,Nc1ccc(Nc2nc(-c3cccs3)cs2)cc1,"inconclusive: 25.1 µM [inhibitor, single point]"
